These results are taken from PubChem BioAssay (NCATS).

The list shows a part of the results. Further columns of the screen follow, without active or inactive calls. Most of these compounds were active or inconclusive in the main read-out, so they are no random draw. Words in brackets tell the shape of the fitted curve; partial curves, single points and poor fits give uncertain potencies.

As usually defined, the AC50 is the concentration giving half of the maximal activity seen.

This assay is described as follows: qHTS assay for small molecule antagonists of peroxisome proliferator-activated receptor gamma signaling (AID 588537). The conditions noted are these: HEK293 PPARg-UAS-bla, beta-lactamase ratio, antagonist mode; measured here: W460 blue channel. The method in brief:
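Antagonist mode, beta-lactamase reporter in HEK293; charcoal/dextran FBS 1%; 3000 cells/well, 37 C 6-6.5 h; cpd titration + rosiglitazone 50 nM final, 16 h 37 C; CCF4, 2 h RT; 460/530 nm; Hill fit → IC50, efficacy.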
As for `Cc1cc(Cl)ccc1OCC(=O)O`, the AC50 was 0.00126 µM [falling, full curve, poor fit]. As for `CC(C)(COCC1CO1)COCC1CO1` (centres undefined), the figure is 50.1 µM [rising, single point]; as for `Oc1ccc(Cl)cc1Cc1ccccc1`, 50.1 µM [rising, single point]. As to `CC(=O)NNc1ccccc1`, the AC50 was 0.631 µM [falling, full curve]. As for `CCCSP(=O)(OCC)Oc1ccc(Br)cc1Cl` (centres undefined), the figure is 44.7 µM [falling, single point]; as for `O=C(O)C(Br)CBr` (centres undefined), 70.8 µM [rising, single point]; as for `Oc1cc(Cl)c(Cl)cc1Cl`, 44.7 µM [falling, partial curve, poor fit]. Turning to `ClC=C(Cl)Cl`, the AC50 is 0.0141 µM [falling, full curve, poor fit]. On to `CCOP(=S)(OCC)SCCl`, for which the AC50 is 0.00126 µM [falling, full curve, poor fit]. As for `Oc1cc(Cl)cc(Cl)c1Cl`, the figure is 39.8 µM [falling, partial curve]; as for `CC(C)(C)C(O)C(Oc1ccc(-c2ccccc2)cc1)n1cncn1` (centres undefined), 35.5 µM [falling, partial curve, poor fit]; as for `CCCN(CCC)c1c([N+](=O)[O-])cc(C(F)(F)F)c(N)c1[N+](=O)[O-]`, 0.0316 µM [falling, full curve, poor fit]. In the case of `O=C(O)c1cccc(Cl)c1`, the AC50 is 0.00501 µM [falling, full curve, poor fit]. In the case of `CS/C(C)=N/OC(=O)N(C)SN(C)C(=O)O/N=C(\C)SC`, the AC50 was 0.00126 µM [falling, full curve, poor fit]. As for `CCCN(CCOc1c(Cl)cc(Cl)cc1Cl)C(=O)n1ccnc1`, the figure is 50.1 µM [falling, partial curve, poor fit]; as for `c1ccc(N=NNc2ccccc2)cc1`, 35.5 µM [falling, partial curve, poor fit].

For `CCC[CH2][Sn]([CH2]CCC)([CH2]CCC)[O]C(=O)c1ccccc1`, the AC50 was 4.47 µM [falling, full curve]. Take `Oc1ccc(C(c2ccc(O)cc2)(C(F)(F)F)C(F)(F)F)cc1`: the AC50 is 0.00158 µM [falling, full curve, poor fit]. As for `CCCOCC(=Nc1ccc(Cl)cc1C(F)(F)F)n1ccnc1`, the figure is 22.4 µM [falling, partial curve, poor fit]. Turning to `C1=CC2C3C=CC(C3)C2C1` (centres undefined), the AC50 was 70.8 µM [rising, single point]. As to `Nc1ccc(-c2ccc(N)c(Cl)c2)cc1Cl`, the AC50 was 44.7 µM [falling, partial curve, poor fit]. As for `FC(F)(F)c1ccc(Cl)cc1`, the concentration at half-maximal activity (AC50) is 0.00708 µM [falling, full curve, poor fit]. As for `Nc1ccc(Cc2ccc(N)c(Cl)c2)cc1Cl`, the figure is 14.1 µM [falling, full curve, poor fit]; as for `O=P(OCC(Br)CBr)(OCC(Br)CBr)OCC(Br)CBr` (centres undefined), 44.7 µM [falling, partial curve, poor fit]; as for `CCC(C)(NC(=O)c1cc(Cl)c(C)c(Cl)c1)C(=O)CCl` (centres undefined), 63.1 µM [falling, partial curve, poor fit].

Turning to `Clc1cc(Cl)c(-c2cc(Cl)c(Cl)cc2Cl)cc1Cl`, the AC50 is 44.7 µM [rising, partial curve, poor fit]. As to `C=CC=O`, the AC50 is 50.1 µM [rising, single point]. As for `COC(=O)c1c(C(F)F)nc(C(F)(F)F)c(C2=NCCS2)c1CC(C)C`, the AC50 was 0.0355 µM [falling, full curve, poor fit]. In the case of `CCOC(=O)C(C)OC(=O)c1cc(Oc2ccc(C(F)(F)F)cc2Cl)ccc1[N+](=O)[O-]` (centres undefined), the AC50 was 44.7 µM [falling, partial curve]. For the compound `CC(C)=C[C@@H]1[C@@H](C(=O)OCN2C(=O)C3=C(CCCC3)C2=O)C1(C)C`, the concentration at half-maximal activity (AC50) is 3.55 µM [falling, partial curve, poor fit].

Consider `O=C(O)COc1ccccc1`, for which the concentration at half-maximal activity (AC50) was 70.8 µM [rising, single point].

Regarding `CC(C)(c1ccc(O)cc1)c1ccc(O)cc1`, the AC50 was 31.6 µM [falling, partial curve].

For `O=C(Nc1ccccc1)Nc1cnns1`, the AC50 was 50.1 µM [falling, single point]. `CCC(C)c1cc([N+](=O)[O-])cc([N+](=O)[O-])c1O` (centres undefined): the AC50 is 28.2 µM [falling, partial curve, poor fit].
